For the assay, the system named is RAW 264.7. Kind of assay: cell viability (MTT) relative to vehicle control; higher = more viable cells. The settings on record: stimulus: HMGB1 5 ug/ml, 18 h.
Where [1] appears, read: compound concentration: 1 ug/ml.

Several values for one entry are separate records, joined by “and”; a condition that tells them apart may be missing. Identical values can stand only once. Counter-ions that a name gives are not always drawn. ± gives the standard deviation of the averaged measurements. This is one part of the list. Single values are uncertain, as repeats are few or missing.

The term cell viability denotes a read-out of living cells in per cent, often relative to untreated cells.

`C=CCN1CCc2cc(O)c(O)cc2C(c2ccccc2)C1` (racemic): where the note is “compound concentration: 3 uM”, the cell viability was 113%.
Still for that read-out and setting: in the case of `O=C1CCC(c2ccc(-n3ccnc3)cc2)=NN1` [Imazodan] it was 101%; in that of `CCOC(=O)[C@H](CCc1ccccc1)N[C@H]1CCc2ccccc2N(CC(=O)O)C1=O` [Benazepril HCl], 109%.
Same read-out and setting: in the case of `CCOC(=O)[C@H](CCc1ccccc1)N[C@H]1CCc2ccccc2N(CC(=O)O)C1=O` it was 89% and 112%.
For the compound `COc1cc(-c2oc3c(OC)c(O)cc(O)c3c(=O)c2O)ccc1O` [Limocitrin], the cell viability under setting [1] worked out at 138%.
As for `CCOC(=O)OC(C)OC(=O)[C@@H]1N2C(=O)[C@@H](NC(=O)[C@H](N)c3ccccc3)[C@H]2SC1(C)C` (stereo partly drawn), where the note is “compound concentration: 3 uM”, the cell viability was 102%.
As for `CCOC(=O)OC(C)OC(=O)[C@@H]1N2C(=O)[C@@H](NC(=O)[C@H](N)c3ccccc3)[C@H]2SC1(C)C` (stereo partly drawn) [Bacampicillin hydrochloride], the cell viability (compound concentration: 3 uM) came out at 112%.
In the case of `NC(CCCP(=O)(O)O)C(=O)O` (racemic) [(±)-2-Amino-5-phosphonopentanoic acid], the cell viability (compound concentration: 3 uM) amounted to 107%.
Consider `NCC(O)c1ccc(O)c(O)c1` (racemic) [(±)-Norepinephrine (+)bitartrate], for which, for the setting “compound concentration: 3 uM”, the cell viability was determined as 99.7%.
Take `O=C(O[C@H]1CN2CCC1CC2)N1CCc2ccccc2[C@@H]1c1ccccc1`: under “compound concentration: 3 uM”, the cell viability is 104%.
As for `NC(=O)N/N=C/c1ccc([N+](=O)[O-])o1` [Nitrofural], the cell viability (compound concentration: 3 uM) was found to be 95%.
In the case of `NC(=O)N/N=C/c1ccc([N+](=O)[O-])o1`, the cell viability (compound concentration: 3 uM) was 111%.
For `CN1CCCCC1CCN1c2ccccc2Sc2ccc([S+](C)[O-])cc21` (stereo not drawn) [Mesoridazine], the cell viability (compound concentration: 3 uM) worked out at 97.9 ± 1.5%.
For the compound `CN1CCCCC1CCN1c2ccccc2Sc2ccc([S+](C)[O-])cc21` (stereo not drawn) [Mesoridazine besylate], where the note is “compound concentration: 3 uM”, the cell viability was found to be 84.8%.
With `COc1cc(OC)c(C=C2C(=O)Nc3ccccc32)c(OC)c1`, the cell viability (compound concentration: 3 uM) amounted to 96.9%.
On to `O=C(CNC(=O)c1ccc(Cl)cc1)NO`, for which, for the setting “compound concentration: 3 uM”, the cell viability was determined as 110%.
The same measure, in the same setting: in the case of `CN1CCCC(n2nc(Cc3ccc(Cl)cc3)c3ccccc3c2=O)CC1` (stereo not drawn) it was 100% and 95.3%.
`CN1CCCC(n2nc(Cc3ccc(Cl)cc3)c3ccccc3c2=O)CC1` (stereo not drawn) [Azelastine HCl]: the cell viability (compound concentration: 3 uM) stood at 112%.
With `CN(C)CCC[C@@]1(c2ccc(F)cc2)OCc2cc(C#N)ccc21` [Escitalopram], the cell viability (compound concentration: 3 uM) is 102 ± 14%.
`CN(C)CCC[C@@]1(c2ccc(F)cc2)OCc2cc(C#N)ccc21`: the cell viability (compound concentration: 3 uM) turned out to be 104 ± 4.4%.
Consider `CCCC(=O)Nc1ncnc2c1ncn2[C@@H]1O[C@@H]2COP(=O)(O)O[C@H]2[C@H]1OC(=O)CCC`, for which, where the note is “compound concentration: 3 uM”, the cell viability is 110%.
The same measure, in the same setting: in the case of `CCCC(=O)Nc1ncnc2c1ncn2[C@@H]1O[C@@H]2COP(=O)(O)O[C@H]2[C@H]1OC(=O)CCC` [Bucladesine sodium salt] it was 97.2%; in that of `CCN1CCN(C(=O)N[C@@H](C(=O)N[C@@H]2C(=O)N3[C@@H]2SC(C)(C)[C@@H]3C(=O)O)c2ccccc2)C(=O)C1=O` [Piperacillin sodium salt], 134%.
Still for that read-out and setting: in the case of `CCN1CCN(C(=O)N[C@@H](C(=O)N[C@@H]2C(=O)N3[C@@H]2SC(C)(C)[C@@H]3C(=O)O)c2ccccc2)C(=O)C1=O` it was 111%; in that of `CCN1CCN(C(=O)N[C@@H](C(=O)N[C@@H]2C(=O)N3[C@@H]2SC(C)(C)[C@@H]3C(=O)O)c2ccccc2)C(=O)C1=O` [Piperacillin], 80.7%.
On the same count and under the same terms, in the case of `CC(=O)Oc1cccc(O)c1` it was 102%; in that of `CO[C@@H]1[C@@H](OC(N)=O)[C@@H](O)[C@H](Oc2ccc3c(O)c(NC(=O)c4ccc(O)c(CC=C(C)C)c4)c(=O)oc3c2C)OC1(C)C`, 103%.
Regarding `CO[C@@H]1[C@@H](OC(N)=O)[C@@H](O)[C@H](Oc2ccc3c(O)c(NC(=O)c4ccc(O)c(CC=C(C)C)c4)c(=O)oc3c2C)OC1(C)C` [Novobiocin sodium salt], the cell viability came to 90.4% under setting [1] and 82.3% (compound concentration: 3 uM).
Take `CO[C@@H]1[C@@H](OC(N)=O)[C@@H](O)[C@H](Oc2ccc3c(O)c(NC(=O)c4ccc(O)c(CC=C(C)C)c4)c(=O)oc3c2C)OC1(C)C` [Novobiocin]: where the note is “compound concentration: 3 uM”, the cell viability came to 94.9%.
As for `COc1ccc(NS(=O)(=O)c2ccc(N)cc2)nn1`, the cell viability (compound concentration: 3 uM) was determined as 101%.
As to `COc1ccc(NS(=O)(=O)c2ccc(N)cc2)nn1` [Sulfamethoxypyridazine], the cell viability (compound concentration: 3 uM) was determined as 115%.
Still for that read-out and setting: in the case of `Nc1ccc(C(=O)NCC(=O)O)cc1` it was 104%; in that of `Nc1ccc(C(=O)NCC(=O)O)cc1` [Aminohippuric acid], 99.9%.
With `Cn1nnnc1SCC1=C(C(=O)O)N2C(=O)[C@@H](NC(=O)[C@H](O)c3ccccc3)[C@H]2SC1` [Cefamandole sodium salt], the cell viability (compound concentration: 3 uM) was determined as 125%.
`Cn1nnnc1SCC1=C(C(=O)O)N2C(=O)[C@@H](NC(=O)[C@H](O)c3ccccc3)[C@H]2SC1`: for the setting “compound concentration: 3 uM”, the cell viability turned out to be 104%.
As to `Cc1cnc(=O)[nH]c1N` [5-Methylcytosine hydrochloride], the cell viability under setting [1] was 95.9%.
Consider `CCC[C@H](N[C@@H](C)C(=O)N1[C@H](C(=O)O)C[C@@H]2CCCC[C@@H]21)C(=O)OCC` [Perindopril], for which the cell viability (compound concentration: 3 uM) is 93.6%.
Take `CCC[C@H](N[C@@H](C)C(=O)N1[C@H](C(=O)O)C[C@@H]2CCCC[C@@H]21)C(=O)OCC`: the cell viability (compound concentration: 3 uM) stood at 102%.
Consider `N=C(N)NCC1COC2(CCCCC2)O1` (stereo not drawn) [Guanadrel sulfate], for which, where the note is “compound concentration: 3 uM”, the cell viability came out at 127%.
For the compound `CC1(C)OC(=O)NC1=O`, the cell viability (compound concentration: 3 uM) was determined as 99%.
For `CC1(C)OC(=O)NC1=O` [Dimethadione], the cell viability (compound concentration: 3 uM) came out at 112%.
Consider `NCCCCCCCCCCN` [1,10-Diaminodecane], for which the cell viability (compound concentration: 3 uM) was found to be 97.9%.

Source of the values: the supplement of paper PMC3682954.
